From the supplement of paper PMC6445147
Values scatter widely in this assay.

B1: human tRNA-Pro; a variant is named by its letters at N, in order (parent)
chain: GGCTCGTTGGTCTAGNGGTATGATTCTCGCTTAGGGTGCGAGAGGTCCCGGGTTCNNATCCCGGACGAGCCC

Columns and labels:
[1] = variants of: B1; assay: tRNA Pol-III promoter activity, log2 (circRNA frequency / plasmid DNA frequency) (log2 ratio); higher = stronger promoter activity; conditions: HEK293T; construct: no Pol-II promoter ((-)CMV library)
[2] = variants of: B1; assay: tRNA 3' processing efficiency (processed reads / all reads, maximum-likelihood estimate) (fraction); higher = more efficient 3' processing; conditions: HEK293T; construct: no Pol-II promoter ((-)CMV library)
[3] = variants of: B1; assay: tRNA 5' processing efficiency (processed reads / all reads, maximum-likelihood estimate) (fraction); higher = more efficient 5' processing; conditions: HEK293T; construct: CMV Pol-II promoter ((+)CMV library, decapped)

Variant	tRNA Pol-III promoter activity (log2) [1]	tRNA 3' processing efficiency [2]	tRNA 5' processing efficiency [3]
TGG	4.34	0.75	
TGT	3.23	0.25	
GGT A14C T59A	5.03	0.13	
GGA T19C	0.916	0.85	0.65
CGC T54C	3.94	0.14	
GTA	2.38	0.35	0.33
GGA T8A G17A G18T T53G T54A A58T	4.77	0.4	
GGA T54A C55T	3.05	0.17	
CGT A58T	5.26	0.14	
GGT T53A A58G	8.51	0.01	
GGT T19A C55T	5.94	0.25	
GGT T19A C55A	5.25	0.4	
GGC G15C T59G	5.84	0.47	
GGG T8C	6.38	0.28	
GGG T8G	3.51	0.42	
GGA G9A T54A	5.11	0.21	
GGA T53G A58T	4.39	0.4	
GGA T53G A58G	8.11	0.83	
GGT G17A	4.3	0.58	
GGA G17C T53A	3.93	0.17	
GGA G17C T53C	3.4	0.89	
GGA T8G A58C	1.81	0.33	
GGG A14C G15C G18C A20T	5.53	0.17	

Reprinted at random: 3 entries already listed.
Variant	tRNA Pol-III promoter activity (log2) [1]	tRNA 3' processing efficiency [2]	tRNA 5' processing efficiency [3]
GGA G17C T53A	3.93	0.17	
CGC T54C	3.94	0.14	
GGA T19C	0.916	0.85	0.65

(cont.)

Variant	tRNA Pol-III promoter activity (log2) [1]	tRNA 3' processing efficiency [2]	tRNA 5' processing efficiency [3]
AGG	4.22	0.54	
TTA	2.91	0.35	0.18
GGC T8A G15T T19G	3.71	0.5	
GGA G17T A58T	2.43	0.13	
GGT T53G	3.94	0.25	
GGT T53A	5.03	0.25	
GGA G17T G18A A58T	6.25	0.4	
GGG T59C	3.8	0.36	
GGG T59A	4.83	0.69	
TGA G15A T54A	3.94	0.2	
GGA T19G C55A	2.47	0.25	
GGA T19G C55T	2.66	0.4	
GGT C55G	4.68	0.2	
GGT G18T C55T	6.51	0.5	
TGT A14T	7.25	0.1	
GGG G15A T19A	6.62	0.5	
GGA T8C A14T	1.94	0.67	
GGC T13A	8.03	0.41	
AGA T53A	6.03	0.5	
GGC T8A T54A A58T	5.45	0.62	
GGA T8C T19A C55T	5.53	0.33	
GGA T19A A58G T59A	3.3	0.33	
GGA T53A T59C	3.77	0.26	

Variant	tRNA Pol-III promoter activity (log2) [1]	tRNA 3' processing efficiency [2]	tRNA 5' processing efficiency [3]
GGA T53A T59G	5.99	0.06	
GGA G9T T59A	5.07	0.55	
GGG A58T	6.02	0.11	
GGG A58G	4.21	0.53	
TGA G17C T54A	5.26	0.4	
GGA G18T T59G	3.12	0.13	
GGA G17C T59C	3.93	0.25	
GGA G17C T59A	4.45	0.25	
GGA G15A T19G	7.08	0.89	
GGA G15T A20T	2.13	0.25	
GGT G15A	2.45	0.2	
CGT G15T	5.19	0.17	
AGA T59A	5.03	0.78	
AGA T59G	4.16	0.67	
GGA G9A T59G	3.26	0.2	
GGA G9A A14G C55T	3.67	0.6	
GGA T54A A58T	6.51	0.5	
GGA G9A G17C G18T C55G	5.63	0.31	
AGA T8C A58C	3.93	0.25	
GGT G9T	3.49	0.62	
CGA G15C A58T	6.03	0.25	
GGT T19A	3.04	0.29	
GGT T19C	3.45	0.17	

Variant	tRNA Pol-III promoter activity (log2) [1]	tRNA 3' processing efficiency [2]	tRNA 5' processing efficiency [3]
GGA G9A T53G	4.35	0.23	
CGA G18C C55T T59A	5.73	0.77	
GGA T8C	-0.107	0.4	
CGA T54G	3.34	0.25	
CGA T54A	4.19	0.17	
GGA G17T T54A	4.94	0.25	
AGA T54A	8.49	0.32	
GGG T53G A58G	6.25	0.2	
AGA T19G C55T	3.94	0.25	
CGA G34A	5.75	0.64	
GGA G17C C55T	5.26	0.2	
GGA G9A C55T	2.93	0.17	
GGT A58G T59A	4.71	0.38	
GGT A58G T59C	5.03	0.5	
CGA T19G T53A	5.45	0.25	
GGA T19C C55A	4.62	0.33	
GGA T19C C55G	2.85	0.25	
GGG G15C	4.36	0.2	
GGC A14T	2.68	0.5	
TGA T54A	2.7	0.17	
GGA T8G G15C T59A	3.68	0.4	
GGA G17T T53A	4.1	0.17	
GGA T54A	1.61	0.34	0.13

Variant	tRNA Pol-III promoter activity (log2) [1]	tRNA 3' processing efficiency [2]	tRNA 5' processing efficiency [3]
GGA T54C	0.227	0.17	
GGT A14G T59C	7.75	0.07	
GGC A14G G17T	5.36	0.4	
GGA G18T T53A T59C	7.03	0.76	
GGG T53A	3.22	0.22	
TGA G17T T59C	9.54	0.93	
GGA G2A	5.62	0.5	
ATA A14C A58T	5.84	0.29	
CGT C55G T59G	7.45	0.22	
TGA G9C G17C	5.45	0.75	
CTA	2.7	0.3	
GGA T8G G18A	4.15	0.57	
GGA C55T T59C	3.21	0.33	
GGA C55T T59G	4.47	0.54	
AGC T54A	4.93	0.17	
GGA T54A T59C	5.77	0.5	
GGA T8C A14G T59G	5.53	0.33	
GGT T19A T59A	5.94	0.25	
GGC T19A	3.41	0.57	
GGC T19C	2.94	0.2	
GGA T19A T53C	8.28	0.26	
GGA T19A T53G	4.06	0.29	
GGA G18A C55A	3.08	0.2	
